Consider 104 sequences from PubChem BioAssay AID1347423 (Functional Genomics Laboratory (NCATS/FGL), 2020).

Out of some 52,000 sequences screened, about 210 (0.4%) were called active.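 Rule for the calls: active = gene whose silencing raises cell survival under the drug, median off-target-corrected z-score across its silencing RNAs 2 or more; inactive = the rest.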 Some of the results follow.

A short description of this test: Resistance to Poly (ADP-Ribose) Polymerase inhibitor: Gene Identification via Genome-wide siRNA Screen. To be noted: mouse BRCA2 R2336H ES cells, olaparib, CellTiter-Glo viability; active compounds read high. Summed up:
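Mouse BRCA2 R2336H ES cells were reverse-transfected with siRNA (20 nM final), treated at 48 h with 500 nM olaparib, and read by CellTiter-Glo after 72 h. Scores: MAD-based z per siRNA, median per gene, seed off-target correction.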
Background: ATP-based viability assays read luminescence as a measure of living cells.
Consider “GGAAGUGACAGCUUUCGUCTT against 2310061B02Rik”, for which the z-score was inactive: -0.157. Consider CCAUCUAUCUGGGAUCUCGTT against Cyp2a4, for which the z-score is inactive: -2.52.

With GGGAGAUUGGAAACAAAAATT against Hsd3b4, the z-score was inactive: -0.11. Take GGAACUUCAUCCAAACUGATT against Ap4m1: the z-score is inactive: 1.3. The same measure for GGCAUUGUUUUCAUUGUGGTT against Cldn7: inactive: 1.07; for GGAUAAGGACAAUCAACUATT against Stab2: inactive: 1.65. Consider CGGGAUUCAUAGAAACAAATT against Dcamkl1, for which the z-score was inactive: 1.47. Take GGGAGGAGAGGACAAAUUATT against Ywhae: the z-score is inactive: -1.45.

For GGUAGAGCAACUGUUUGCGTT against Myl7, the z-score is inactive: 0.577. Then “GCUUUUGAUAACUGCCUGGTT against 2310002A05Rik”, with inactive: 0.74.

For GGUCGUGUACUCGUUCAGUTT against Pcdh10, the z-score was inactive: 0.201.

Turning to GGAACUCCAGCUUUUGGUCTT against Sox13, the z-score was inactive: -0.181. GGUGCUAUUCUUUCUUGUCTT against Slc12a3: the z-score is inactive: -0.561. Take GGAACGAACUAAGAAUGGATT against Mapk8: the z-score is inactive: -0.299. With GGACACCUUACAUUAUGAATT against Rasgrf1, the z-score is inactive: 0.774. Consider “GGUGAUCUGGGUGUUGAUUTT against 2900084M01Rik”, for which the z-score is inactive: -0.0208. For the sequence GGAUGCCAUUUACCGUGCUTT against Olfr1403, the z-score is inactive: 0.858. Then GGCCAUUCAGAAGAUGCAGTT against Snapc2, with inactive: 0.45; and CCCUGAAUACUCUGAGUGGTT against Ucn, with inactive: 0.0743; and “GGAGUUAAGCUAGAGAACUTT against 9330196J05Rik”, with inactive: 0.375.

With GGAUCUGACUGAAGAUCACTT against Asgr1, the z-score was inactive: 1.91. With GGUACAUGCUCAAGUUAUATT against Bmp15, the z-score is inactive: -0.203. Then GGACUACCUGUGUAUGCUCTT against Wdr40b, with inactive: 1.37; and GGGCCAUUACAGAUGUGUUTT against Ly96, with inactive: -1.19; and GCAGCAGGAUUUCUCCAUUTT against Tcfl4, with inactive: 0.3.

“GGGACUGUAUAUGUAAAGATT against 9130014G24”: the z-score is inactive: 1.16. Take GGAAGAGCCUGAGAAAAGCTT against Perp: the z-score was inactive: 0.285. With GGCUGAAGACAAACAAAAGTT against Tm9sf2, the z-score was inactive: 1.81.

Regarding GGAUGUUCAAGCGCAGAGATT against Gtf3a, the z-score is inactive: -0.988.

In the case of GGAGGAGUAUGAUGAAUAUTT against Anp32a, the z-score was inactive: -1.42. For the sequence GGCCAGGAAAUAUGAAAUATT against Phtf1, the z-score was inactive: -0.2. Then GGACAUUUUAUAAAUGGUGTT against Wdr21, with inactive: 0.105; and GCAGGUUCAGGCAGUAAUUTT against Kpna4, with inactive: -1.9. In the case of GGGAUUCAAGAAGUCCUGUTT against Elf2, the z-score is inactive: 0.151.

Regarding GCAGAAAAGGCGAGUUUAUTT against Phf19, the z-score is inactive: -0.35. Take CGACUUUGGAGAAUUUCAATT against Ap1gbp1: the z-score was inactive: 0.314. Consider GCUGACUUCACAUUUGGCUTT against Mms19l, for which the z-score was inactive: 0.853. As to GCCGAAGUGACAAUGUCUCTT against Tbc1d14, the z-score is inactive: -0.0571. For “GGUCCUGAGCACAUAGACUTT against 0610007P14Rik”, the z-score is inactive: 0.74. Regarding AUGGCUAUUUUGAAACCUCTT against H2-M10.3, the z-score was inactive: 2.38. Consider GCUACAAAGCGAUGUUUCATT against Pola2, for which the z-score is inactive: -1.88.

In the case of GGUGUCCUCUUUGUUCAUGTT against Sgce, the z-score is inactive: -0.311. Consider GCGAAAUCUUUGUCACUAATT against Sertad4, for which the z-score is inactive: 0.937. The same measure for “GCUUAUGAGACUCAUUUAATT against 3230401D17Rik”: inactive: 0.738. The same measure for GGCAGAGAUUAAGAACUGUTT against Cd97: inactive: -0.589; for CCUCAUGUCACUUUAACAUTT against Ccl7: inactive: 0.48; for GGAUGUUAGUCCAUUUGGCTT against Gpc5: inactive: -0.173.

In the case of GGACGAUAAAUUCACUGUUTT against Inpp5d, the z-score is inactive: -0.166.

In the case of CCAUAUCAGUAUUUAGAACTT against Syt9, the z-score is inactive: 0.27.

Take CCAAUCGAUACAUCAUUUUTT against Gcl: the z-score is inactive: 1.54. As for CCUCAUCAAAGUCCGUCUATT against AW491445, the z-score is inactive: 1.4. Take CCGAGUAUGAGAAAUAUGATT against Ext1: the z-score is inactive: 0.542. On to GGAAUAAUUGGUGUUAAAGTT against Hnrpk, for which the z-score is inactive: -0.376. The same measure for GGCCUGAGGACUAUGUUUUTT against C1s: inactive: 1.41; for GGAGAUCCUAGGCUUGAACTT against Chx10: inactive: 0.887; for GCAGGGACCGUCUAUAACUTT against Ptprb: inactive: -0.654. For the sequence AUCUCGUCUUUGGUUAAUATT against V1rd11, the z-score was inactive: 1.3. For the sequence “GGAAGCAAUGAUCAAUUAUTT against 4930511A21Rik”, the z-score was inactive: -0.586. Consider GGCUUUCAUUCUGCAGCUATT against Olfr1089, for which the z-score was inactive: -0.876.

Take GCUCAUCCAUUACGAGUUGTT against Dusp18: the z-score was inactive: 0.528. The same measure for “GGAUGGGAACUACAUAAUUTT against 2310057J18Rik”: inactive: -0.448.

For GCUCCCUGUUCUUCACCAUTT against Ifitm1, the z-score is inactive: -0.399. The same measure for GUUGAGGAUAACAUUGAACTT against MGC102419: inactive: -0.623; for GGACAUGCUUUCAAUGGAATT against Tshr: inactive: 0.716. With GCCUUCAACAAAAAGUUCUTT against Olfr137, the z-score is inactive: 0.0535. Regarding GGAUUUGCCUACACAUAUGTT against Nqo1, the z-score was inactive: -0.198. The same measure for GGAUGCUCAAAAUCUACAATT against H2-M11: inactive: -0.801. Regarding GGAAUUUGGUGCAGUGUCCTT against AW544865, the z-score was inactive: -1.75. As to CCUCUUUUUCUCCUAUUUUTT against Olfr1165, the z-score was inactive: -1.07. As for GGAGUUUCUGUUUAACAUGTT against Hoxa9, the z-score is inactive: 1.44. For the sequence GGAAGUUGAAUACAUUGUCTT against Arntl, the z-score is inactive: 0.0738.

Regarding “GGAACACUGUGAGAACAAGTT against C230081A13Rik”, the z-score is inactive: -1.22.

For the sequence GGCUUUCGACCAGUUUUUCTT against Hoxa11, the z-score is inactive: 0.0373. “GGCUCAUCAGAUGUAAACATT against 4931407K02Rik”: the z-score is inactive: 3.15. Take GCUUUCUUAGCAUUAAAUCTT against Zfp307: the z-score is inactive: 0.81. The same measure for “CGGCCUGUUAUAAACCUGCTT against 4933409K07Rik”: inactive: -0.131; for “CCUCUACUCAGGAAAUAAGTT against 1810043M15Rik”: inactive: 1.21. For the sequence GCUCAUAAUUACAUCACCATT against Hist2h3c2, the z-score is inactive: -0.882. Regarding GCCUCUUAUUAACUGAACGTT against BC061194, the z-score was inactive: -1.28.

In the case of CCCAUUACGCAAAUUGUUCTT against Rin3, the z-score is inactive: 0.956. The same measure for GGAUUUUGCCUAAAAUACATT against Sephs1: inactive: -1.13; for GGGCCUUUUUAUCCAACUUTT against Mcts1: inactive: -1.18. On to GGAAGAAUCUUCCUGUUAATT against Chic2, for which the z-score was inactive: -1.62. For the sequence GGUUUCUGCAUGAAAAUCATT against Irak4, the z-score was inactive: -0.656. For CCCUAUCUUCAGGCCAUUGTT against LOC330776, the z-score is inactive: -1.97. For the sequence GGCAUAGAAGAGAUGACAGTT against Fabp7, the z-score is inactive: -0.762. As to GGAGGAUUAUCACAAGUCCTT against Anxa6, the z-score is inactive: 0.307. Turning to GGACUUAGCACCCUCCUAATT against Tnfsf15, the z-score is inactive: -1.93. On to GCUACUAGUAUAUGUACUCTT against Psg28, for which the z-score was inactive: -0.408. For the sequence GGCAAAAUGGUUUUUUGUUTT against AI987662, the z-score was inactive: 0.237. Consider “GGCCUUUCUAGAGCUGUGGTT against 5830482F20Rik”, for which the z-score is inactive: -1.44. For the sequence GGAGGUGCUGAAGUUCUACTT against Bckdha, the z-score is inactive: -1.17. In the case of GGUGACACCGCUCAUGAUCTT against Sephs2, the z-score is inactive: -0.485. As for CCUGUUCAGAUUGUCAACATT against Ptov1, the z-score was inactive: 1.88. On to CCCAACAAUCCAACAAUGATT against LOC432723, for which the z-score is inactive: 0.199.

In the case of GCAAUAGCCGGGAGAUAACTT against Itlnb, the z-score was inactive: -0.128. Take GGCAUAUCUGAGGUGAAUCTT against Sec23b: the z-score is inactive: 0.481. Regarding GGUUAUGAAUCUCAUCAGUTT against St13, the z-score is inactive: 0.273. As for “GCACUGCUGGCUAUUGGAATT against 2310061A22Rik”, the z-score is inactive: -1.24. GGCACAUGGUUUCUGACCUTT against Bsf3: the z-score is inactive: -0.000555.

Turning to “CCGUCUUAAUGGAUGAUUGTT against D630005C06Rik”, the z-score was inactive: 0.433. As for GGAGAAGGUGGCCUUCUUUTT against Fbxo46, the z-score was inactive: 0.318. For the sequence GCAGACUCUUCCAAGUAAUTT against Lrrc28, the z-score was inactive: -0.785.

With “GCCAACUGGAUAAAUGUCATT against 2600001J17Rik”, the z-score is inactive: -0.741.
